Laboratory results published in PubChem BioAssay AID493014 (National Center for Advancing Translational Sciences (NCATS), 2011).
About 170 (0.05%) of roughly 340,000 compounds were called active. The shares of active, inactive and inconclusive entries below differ from those in the screen. Calls follow the shape of the dose curve; as a rule, active = well fitted inhibition curve with a large enough effect in the signal ratio, with a control signal flat (not every such curve was filed as active); inconclusive = small, poorly fitted or top-dose-only effect, or effect the other way, or a change in a side signal; inactive = flat fitted curve, though single readings scatter; the % refers to the signal ratio. Potencies of inconclusive entries are doubtful fits and often do not repeat.

Assay: qHTS Assay to Find Inhibitors of Chronic Active B-Cell Receptor Signaling;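 as to activity change, negative = inhibition: plate controls were basal doxycycline-induced cells for no effect and cells given 10 µM MG132 for full effect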
Details: ABC-DLBCL IkBa-CBG/CBR reporter, luminescence ratio (green luciferase fused to IkBa over red control in TMD8 lymphoma cells), 4 h; activity change, negative = inhibition: at 46.1 µM (top of the series)
How it was run: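 TMD8 ABC-DLBCL cells carrying doxycycline-inducible green luciferase fused to IkappaBalpha plus unfused red luciferase were exposed to compounds (up to 46 uM) for 4 hrs at 37C. Activity came from the overlap-corrected green/red luminescence ratio.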
Potency is read from the fitted curve at half-maximal effect.

SMILES | activity change, negative = inhibition | Potency
CC(C)(C)NC(=O)C(c1cccs1)N(CC1CCCO1)C(=O)c1ccc(-c2ccccc2)[nH]1 (stereo unspecified) | inactive: 26.2% | 
Cc1nnc(SCC(=O)Nc2cc(-c3cc(C)c(C)cc3C)nn2-c2ccccc2)s1 | inconclusive: -5.6% | 
O=C(Nc1cc(Oc2ccc(Cl)cc2)cc([N+](=O)[O-])c1)c1ccco1 | inconclusive: 0.701% | 
CCOC(=O)C1CCN(C(=O)c2cc3c(=O)n4ccccc4nc3s2)CC1 |  | inconclusive: 11.2 µM [falling, partial curve, poor fit]
COc1ccc(C(=O)N/N=C/C(Br)=C/c2ccccc2)cc1 |  | inconclusive: 29.1 µM [falling, single point]
O=C(COC(=O)c1cc(-c2ccccn2)nc2ccccc12)Nc1ncc(C(F)(F)F)cc1Cl | inactive: 11.6% | 
CC(=O)Oc1ccc(C(=O)Nc2cccc(C(=O)Nc3ccccc3C(=O)O)c2)cc1 |  | inconclusive: 35.5 µM [falling, single point]
O=C(O)C1CCN(C(=O)OCc2ccccc2)CC1 | inconclusive: 3.4% | 
COc1ccc(-c2nn(C)c3sc(C(=O)Nc4cccc(F)c4)cc23)cc1OC |  | inconclusive: 0.282 µM [rising, full curve, poor fit]
C[C@H](CO)N1C[C@H](C)[C@@H](CN(C)S(=O)(=O)c2cccs2)Oc2ccc(NC(=O)C3CC3)cc2C1=O | inconclusive: -7.51% | 
Cc1ccc(C)c(S(=O)(=O)NCc2ccncc2)c1 | inactive: -2.05% | 
COc1ccc(C2N(c3ccc(C)cc3)CCN2c2ccc(C)cc2)cc1O | inconclusive: 11.4% | 
COc1cc(/C=C/c2cc(C(F)(F)F)[nH]c(=O)n2)cc(OC)c1OC |  | inconclusive: 17.8 µM [cytotoxic, single point]
COc1cc(C2NC(=S)NC(C)=C2C(=O)Nc2ccc(C)cc2)ccc1O (stereo unspecified) | inconclusive: 21.2% | 
CCOCCCNC(=S)N1CCCN(c2nc3cc(C)cc(C)c3cc2C#N)CC1 | inactive: -2.33% | 
CCCCCn1c(CN2CCN(c3cccc(Cl)c3)CC2)nc2c1c(=O)[nH]c(=O)n2C | inconclusive: -11.6% | 
CC1=NNC(=O)C1C(c1ccccc1)C(C#N)C#N (stereo unspecified) |  | inconclusive: 0.82 µM [falling, full curve, poor fit]
CCN(CC(=O)Nc1ccc(NC(C)=O)cc1)CC(=O)Nc1ccc(Cl)c(Cl)c1 | inconclusive: -0.266% | 

SMILES | activity change, negative = inhibition | Potency
CCOC(=O)N/N=C1\CC(C)S(=O)(=O)c2ccc(Cl)cc21 (stereo unspecified) | inconclusive: 3.25% | 
CCOc1ccc(N2C(=O)CN(c3cccc4ccccc34)C2=S)cc1 |  | inconclusive: 1.78 µM [falling, full curve]
CC(C)CNC(=O)CSc1ccc(Cl)cc1 | inconclusive: -17.4% | 
COc1ccccc1C(=O)Nc1ccc(-c2nnn(CC(=O)N3CCOCC3)n2)cc1 |  | inconclusive: 8.91 µM [falling, partial curve]
Nc1nonc1-n1nnc(C(=O)N/N=C/c2ccccc2Cl)c1CN1CCOCC1 | inconclusive: 5.32% | 
Cc1c(Cl)cnc(NC(=O)CSc2n[nH]c(N)n2)c1Cl | inconclusive: 0.184% | 
O=C(Cc1cccs1)Nc1nnc(-c2ccncc2)s1 |  | inconclusive: 18.4 µM [falling, partial curve]
COc1ccc(NC(=O)/C(C#N)=C/c2ccc(-c3ccccc3C(=O)O)o2)cc1 |  | inconclusive: 15.8 µM [falling, partial curve]
Cc1ccc(OCc2ccc(C(=O)NCc3cccnc3)cc2)cc1C |  | inconclusive: 22.4 µM [falling, single point]
CCOc1ccc(CNC(=O)c2cc3oc4ccccc4c3n2C)cc1 | inconclusive: -19.4% | 
CC(=O)Nc1ccc(NC(=O)c2ccc(NS(=O)(=O)c3cccc4cccnc34)cc2)cc1 | inconclusive: -10.1% | 
CC(=O)c1ccc(NC(=O)C(C)N(C)CC(=O)Nc2ccc(N3CCOCC3)cc2)cc1 (stereo unspecified) | inconclusive: 0.806% | 
C=CCn1c(CNC(=O)c2cccs2)nnc1SCC(=O)Nc1ccc(C(=O)O)cc1 | inconclusive: 9.94% | 
COc1cc(NC(=O)c2c(F)cccc2F)c(Cl)cc1Cl | inconclusive: 4.46% | 
O=C(N/N=C/c1ccccn1)c1ccc(Cl)cc1 |  | inconclusive: 22.4 µM [falling, single point]
CCN(CC)C(=O)C(C(=O)c1cccc([N+](=O)[O-])c1)n1cc(Cl)ccc1=O (stereo unspecified) | inactive: -2.14% | 
ClCC1CSC(=NC23CC4CC(CC(C4)C2)C3)O1 (stereo unspecified) | inconclusive: 24.8% | 
CCN(CCNC(=O)CN1CCN(Cc2ccc(Cl)cc2)C1=O)c1ccccc1 | inconclusive: 16.8% | 

Two entries from above, as a markdown table.

| SMILES | activity change, negative = inhibition | Potency |
| --- | --- | --- |
| CCOc1ccc(CNC(=O)c2cc3oc4ccccc4c3n2C)cc1 | inconclusive: -19.4% |  |
| CC(=O)Nc1ccc(NC(=O)c2ccc(NS(=O)(=O)c3cccc4cccnc34)cc2)cc1 | inconclusive: -10.1% |  |
